Measured values reported in patent US9868773B2 (DAPHOT ENTERPRISES LIMITED, priority 2014, dated 2018).

Experiment: general procedure: peptide synthesis; 2-chlorotrityl resin (1.5 mM/g capacity); DIC/HOBt
Conditions: whole synthesis
[1] = HELC, scale of the general procedure 6.0 g resin (fragments), 2.0 g resin (final peptide)
[2] = scale of the general procedure 6.0 g resin (fragments), 2.0 g resin (final peptide)

Substance	isolated mass [g]	final HPLC purity [1] [%]	isolated yield [2] [%]	crude mass [g]	crude HPLC purity [1] [%]	crude yield [2] [%]
14-glycine-exendin-4 (Heloderma suspectum)-(1-39)-peptidyl-octa-D-arginyl-glycine	3.9	97.5	20	–	–	–
Boc-His(Trt)-Gly-Glu(OtBu)-Gly-Thr(tBu)-Phe-Thr(tBu)-Ser(tBu)-Asp(OtBu)-Leu-Ser(tBu)-Lys(Boc)-Gln(Trt)-Gly-OH	–	–	–	20.9	95	85
Fmoc-Glu(OtBu)-Glu(OtBu)-Glu(OtBu)-Ala-Val-Arg(CF3COOH)-Leu-Phe-Ile-Glu(OtBu)-Trp(Boc)-Leu-Lys(Boc)-Asn(Trt)-Gly-OH	–	–	–	21.8	95	80
